Results reported in PubChem BioAssay AID2685 (National Center for Advancing Translational Sciences (NCATS), 2010).
Some of the results follow. These are further read-outs of the screen, such as a control signal, another cell line or another target. No call is given for them. Compounds called inactive in the main read-out are mostly missing here. The note in brackets gives the kind of curve behind each potency; many fits are weak.

Assay: qHTS Assay for Lipid Storage Modulators in Drosophila S3 Cells;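 on cell number change: cells counted by Cell Tracker Red CMTPX staining in the red channel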
Settings: BODIPY lipid droplet fluorescence, 18-24 h; for cell number change: measured here: cell count max response, cells fed with added oleic acid
Procedure, shortened: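 Drosophila S3 cells loaded with oleic acid (400 uM, as added) and compounds at several concentrations; lipid droplets imaged by 488-nm laser-scanning cytometry, 500–530 nm intensity and object ratio to cell channel. Percent activity normalized to 20 uM Triacsin C.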

[1] = measured here: lipid fluorescence (Fed channel) AC50, cells fed with added oleic acid
[2] = measured here: cell number channel AC50, cells fed with added oleic acid

Structure (SMILES) | cell number change [%] | AC50 [1] | AC50 [2]
COCCn1nnnc1C(c1ccccc1)N1CCN(Cc2ccc3c(c2)OCO3)CC1 (stereo not given) | 4.79 | 16.4 µM [rising, single point] | 
Cc1cc2ccccc2cc1CN1CCCCC1 | -1.57 | 29.1 µM [rising, single point] | 
CCC1(c2ccc(F)cc2)NC(=O)N(CC(=O)c2ccc[nH]2)C1=O (stereo not given) | 10.6 |  | 6.51 µM [falling, single point]
CCOc1ccc(C2c3c(oc4ccccc4c3=O)C(=O)N2c2ccc(C)cn2)cc1OC (stereo not given) | 42.3 | 2.91 µM [rising, single point] | 5.17 µM [rising, partial curve]
CC(=O)c1cc(CN2C(=O)CCC2=O)cs1 | -14.8 |  | 
CCCCNc1cc(C)nc(NCc2ccccc2)n1 | -75.9 | 6.51 µM [falling, partial curve] | 23.1 µM [falling, partial curve, poor fit]
COC(=O)c1cccc(CN2C(=O)SC(Nc3ccc(C)cc3)C2=O)c1 (stereo not given) | 19.7 |  | 4.61 µM [rising, full curve, poor fit]
C=C(C)c1cccc(C(C)(C)NC(=O)N2CCC(C)CC2)c1 | -4.88 |  | 
Cc1ccc(NC(=O)COC(=O)C2C3CC4OC(=O)C2C4C3)cc1 (stereo not given) | 10.3 |  | 
Cc1cc(C(=O)NCCc2ccc(Cl)cc2)c2ccccc2n1 | 4.76 |  | 
Cc1cc(Cl)ccc1OCCCC(=O)NNC(=O)c1ccccc1O | 40.6 |  | 29.1 µM [rising, single point]
CCOCc1nnc(NC(=O)c2cccs2)s1 | 0.944 | 14.6 µM [rising, partial curve, poor fit] | 
CCCCNc1nc(N(C)c2ccccc2)nc(-n2ccnc2)n1 |  | 5.8 µM [falling, single point] | 
OC(CN1CCN(c2cccc(C(F)(F)F)c2)CC1)c1c[nH]c2ccccc12 (stereo not given) | -28.6 | 20.6 µM [falling, partial curve, poor fit] | 
O=C(COC(=O)C12CC3CC(CC(O)(C3)C1)C2)Nc1ccc(Br)cc1F | -19.2 | 32.6 µM [falling, single point] | 
Cc1c(NC(=O)Nc2ccc(Cl)cc2)c(=O)n(-c2ccccc2)n1C | -55.3 |  | 29.1 µM [falling, partial curve]
O=C(c1ccc(-c2ccccc2)cc1)N1CCN(c2ncccn2)CC1 |  | 6.51 µM [rising, single point] | 
COc1ccc(-c2csc(Cc3nnc(N4CCOCC4)n3-c3ccccc3)n2)cc1OC | 23.3 |  | 
CCC(C)c1c(O)nc(SCC(=O)N2CCCCC2)[nH]c1=O (stereo not given) | 13.6 | 0.058 µM [rising, full curve, poor fit] | 
CCOC(=O)C1CCN(CC(=O)Nc2c(C(=O)OC)[nH]c3ccc(Cl)cc23)CC1 | -128 |  | 
Cc1ccc(S(=O)(=O)N(C)CC(=O)Nc2cccnc2)cc1 | 23 | 20.6 µM [rising, partial curve, poor fit] | 

Sorted by count of non-hydrogen atoms (descending): some entries from above.
Structure (SMILES) | cell number change [%] | AC50 [1] | AC50 [2]
COc1ccc(-c2csc(Cc3nnc(N4CCOCC4)n3-c3ccccc3)n2)cc1OC | 23.3 |  | 
OC(CN1CCN(c2cccc(C(F)(F)F)c2)CC1)c1c[nH]c2ccccc12 (stereo not given) | -28.6 | 20.6 µM [falling, partial curve, poor fit] | 
COC(=O)c1cccc(CN2C(=O)SC(Nc3ccc(C)cc3)C2=O)c1 (stereo not given) | 19.7 |  | 4.61 µM [rising, full curve, poor fit]

Next structures

Structure (SMILES) | cell number change [%] | AC50 [1] | AC50 [2]
O=C(N/N=C/c1ccc(Cl)cc1Cl)c1ccc(-n2cnnn2)cc1 | -8.88 | 0.00461 µM [rising, full curve, poor fit] | 
O=C(CN1CCCC1)N1CCCC(c2ccc(F)cc2)c2ccc(F)cc21 (stereo not given) | 1.34 | 0.13 µM [rising, full curve, poor fit] | 
CC(=O)N1CCN(C(=O)COc2ccccc2C(=O)Nc2ccccc2)CC1 | 13.6 |  | 0.0731 µM [falling, full curve, poor fit]
COc1ccc(C2C(C(=O)OC(C)C)=C(C)N=c3s/c(=C\c4cccs4)c(=O)n32)cc1 (stereo not given) | -84.2 |  | 
CC(C)CNC(=O)COC(=O)c1ccc(Cl)c(S(=O)(=O)N2CCc3ccccc32)c1 | -21.2 |  | 0.00517 µM [rising, full curve, poor fit]
O=c1c2[nH]c3ccc(Cl)cc3c2ncn1CCN1CCCCC1 | -21.8 |  | 
O=c1[nH]c(SCCN2CCOCC2)nc(O)c1-c1ccccc1 | -13 | 29.1 µM [falling, single point] | 
O=C(NC1CCCCCC1)c1cc(S(=O)(=O)N2CCC3(CC2)OCCO3)ccc1F | -33.1 | 23.1 µM [falling, single point] | 18.4 µM [falling, single point]
COc1ccc(-n2c(Cc3cc(=O)[nH]c(=O)[nH]3)nnc2SCc2ccccc2)cc1 |  | 0.259 µM [falling, full curve, poor fit] | 
CCC(NC(=O)CCc1nnc(-c2cc(C)on2)o1)C12CC3CC(CC(C3)C1)C2 (stereo not given) | -32 |  | 23.1 µM [falling, partial curve, poor fit]
NS(=O)(=O)c1ccc(NC(=O)/C=C/c2cn(-c3ccccc3)nc2-c2cccc(Cl)c2)cc1 | -9.56 |  | 
O=C(OCc1ccc2c(c1)OCO2)c1ccc(S(=O)(=O)N2CCCC2)cc1 | 14.7 |  | 
Fc1cc(F)cc(-c2c(-c3ccccc3)ncc3ccc(F)cc23)c1 | -40.1 |  | 7.31 µM [falling, single point]
COCC(C)N1CCC(Oc2cccc(C(=O)NCCc3ccccc3)c2)CC1 (stereo not given) | -22.5 | 0.58 µM [falling, single point] | 
CCOC(=O)N1CCC(NC(=O)CS(=O)(=O)Cc2nc(-c3ccc(OC)cc3)oc2C)CC1 | -52.7 |  | 23.1 µM [falling, partial curve, poor fit]
Cn1c(Cc2ccc3c(c2)OCO3)nnc1SCC(=O)NC(C)(C)C | 13.1 |  | 
O=C(CCC1CCCC1)NNC(=O)c1cc2ccccc2cc1O | -25.7 |  | 
Cc1onc(-c2ccccc2)c1NC(=O)N(CCC#N)Cc1cccs1 | -11.2 | 0.164 µM [falling, partial curve, poor fit] | 
CCOC(=O)c1c(NC(=O)C(C)NCc2ccco2)sc2c1CCC(C)C2 (stereo not given) |  |  | 6.51 µM [rising, single point]
Cc1ccc(S(=O)(=O)/N=C(/Nc2nc(C)cc(C)n2)N2CCOCC2)cc1 | 4.33 |  | 
COC(=O)Cn1cc(C(=O)OC)cc(Br)c1=O | -14.7 | 29.1 µM [falling, single point] | 
